Data as given in PubChem BioAssay AID1508597 (Cure First, 2020)

Assay: 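Genes whose silencing sensitises or protects ovarian cancer cells against rucaparib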 (primary screen)
System: human ovarian carcinoma lines grown from tumours: OCI-P5x (papillary serous) and OCI-C5x (clear cell)
Knock-down reagent: siRNA pool against human genes, 1.25 pmol siRNA per well
Timing: 72 h or 96 h, depending on the cell culture
Treatment: rucaparib 20 µM (about IC30) or vehicle, present until read-out
Rucaparib or vehicle: Vehicle
Cell line: OCI-P5x (serous)
Measurement: 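ATP luminescence measured at 72 or 96 h according to the culture, then normalised and expressed as percent viability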
Direction: viability, normalised: higher = more viable cells remaining
Call rule: 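Active when normalised viability falls below 80 percent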
Calls: active = viability under 80%; inactive = viability 80% or more
Shown is a random part of the about 2,100 reagents, under one of the conditions tested. 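Calls flag viability under 80% in either arm, not effects specific to rucaparib; the reference for percent is not stated.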 Not stated in the record: the 100% reference.

Gene | technical replicate | viability, normalised (%) | activity call
ZFP42 | 1 | 47.8 | active
ZFP42 | 2 | 60.2 | active
ZFP42 | 3 | 55.6 | active
POLI | 1 | 75 | active
POLI | 2 | 68.7 | active
POLI | 3 | 84.2 | inactive
GRK4 | 1 | 67.8 | active
GRK4 | 2 | 50.7 | active
GRK4 | 3 | 80.6 | inactive
TNK1 | 1 | 77 | active
TNK1 | 2 | 67 | active
TNK1 | 3 | 87.6 | inactive
PIK3R2 | 1 | 74.5 | active
PIK3R2 | 2 | 56.3 | active
PIK3R2 | 3 | 71.9 | active
HNRNPU | 1 | 69.8 | active
HNRNPU | 2 | 45.9 | active
HNRNPU | 3 | 74.4 | active
DGKI | 1 | 69 | active
DGKI | 2 | 55.7 | active
DGKI | 3 | 62.7 | active
SHPRH | 1 | 66.1 | active
SHPRH | 2 | 62.6 | active
SHPRH | 3 | 80.3 | inactive
